Laboratory results: PubChem BioAssay AID1259308 (NCATS, 2017)

- Assay: 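Knock-downs that increase output of a recombinant reporter protein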 (primary screen)
- Cell system: human HEK293 embryonic kidney cells stably expressing firefly luciferase (HEK-CMV-Luc2-Hygro)
- Reagents: single siRNA against human genes, 0.8 pmol siRNA per well
- Time to read-out: 72 h
- Measured: 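Reporter luminescence and viable-cell signal on separate replicate plates, given as percent of non-targeting control and median/MAD z-scores, plus per-cell luciferase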
- Reading the numbers: total luciferase, z-score and total luciferase, % of control: higher = more reporter protein produced; luciferase per cell, z-score: higher = more reporter output per viable cell; viable cells, % of control: higher = more viable cells
- Rule for the call: 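An siRNA counts as active if its total luciferase robust z-score exceeds 3; genes with two or more such siRNAs out of three were retested with fresh siRNAs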
- Calls: active = raised luciferase; inactive = no rise
In all, the deposit lists about 59,000 reagents; this is an unselected part. Of all reagents, about 1,510 (2.6%) were called active. 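Calls use total luciferase alone and ignore viability, so some active siRNAs may act by altering cell number.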 Entries without a mark were called inactive. Reagents against one gene are numbered here.

The opening 4 records, ahead of the listing:
| target gene | reagent no. | total luciferase, z-score | total luciferase, % of control | luciferase per cell, z-score | viable cells, % of control |
| --- | --- | --- | --- | --- | --- |
| ATRNL1 | 1 | -0.951 | 63 | -1.34 | 100 |
| ATRNL1 | 2 | 1.53 | 112 | 2.06 | 73 |
| ATRNL1 | 3 | 1.53 | 112 | 2.02 | 73.8 |
| FOXN3-AS1 | 1 | -0.415 | 73.6 | -0.468 | 93.1 |

Results, repeating the preview:
| target gene | reagent no. | total luciferase, z-score | total luciferase, % of control | luciferase per cell, z-score | viable cells, % of control |
| --- | --- | --- | --- | --- | --- |
| ATRNL1 | 1 | -0.951 | 63 | -1.34 | 100 |
| ATRNL1 | 2 | 1.53 | 112 | 2.06 | 73 |
| ATRNL1 | 3 | 1.53 | 112 | 2.02 | 73.8 |
| FOXN3-AS1 | 1 | -0.415 | 73.6 | -0.468 | 93.1 |
| FOXN3-AS1 | 2 | -0.0107 | 81.7 | -0.417 | 102 |
| FOXN3-AS1 | 3 | -0.284 | 76.2 | 0.614 | 72.5 |
| SMYD5 | 1 | 0.492 | 91.7 | 1.03 | 78 |
| SMYD5 | 2 | 1.5 | 112 | 1.08 | 94 |
| SMYD5 | 3 | 0.407 | 90 | 1 | 77.2 |
| THEMIS | 1 | -0.384 | 74.2 | 1.08 | 62.4 |
| THEMIS | 2 | -0.567 | 70.6 | -0.823 | 98 |
| THEMIS | 3 | -1.11 | 59.7 | -0.399 | 74.1 |
| NDUFA1 | 1 | 0.074 | 83.4 | 0.455 | 82.6 |
| NDUFA1 | 2 | -0.77 | 66.6 | -1.5 | 111 |
| NDUFA1 | 3 | 0.338 | 88.6 | 0.734 | 81.6 |
| BCS1L | 1 | 0.534 | 92.5 | 0.582 | 88.7 |
| BCS1L | 2 | -0.152 | 78.9 | -0.607 | 103 |
| BCS1L | 3 | 1.18 | 105 | 1 | 90.5 |
| LINC01551 | 1 | 0.579 | 93.4 | 0.139 | 101 |
| LINC01551 | 2 | 0.27 | 87.3 | -0.29 | 105 |
| LINC01551 | 3 | -0.511 | 71.7 | -0.793 | 98.7 |
| ODAD3 | 1 | -0.825 | 65.5 | -0.748 | 89.1 |
| ODAD3 | 2 | -0.539 | 71.2 | -0.992 | 103 |
| ODAD3 | 3 | -0.171 | 78.5 | -0.526 | 101 |
| KIF11 | 1 | -1.89 | 44.4 | -0.337 | 54.2 |
| KIF11 | 2 | -2.22 | 37.6 | -0.519 | 48.2 |
| KIF11 | 3 | -1.96 | 43 | -0.593 | 56.1 |
| OR2W3 | 1 | 2.01 | 122 | 2.93 | 63 |
| OR2W3 | 2 | -0.132 | 79.3 | -0.233 | 94.2 |
| OR2W3 | 3 | -0.169 | 78.5 | 0.0844 | 85.8 |
| ROPN1L | 1 | -0.754 | 66.9 | -0.234 | 79.5 |
| ROPN1L | 2 | -1.19 | 58.1 | -1.34 | 92.4 |
| ROPN1L | 3 | 0.00772 | 82 | 0.661 | 77 |
| ROPN1L | 4 | -0.0664 | 80.6 | -0.966 | 116 |
| ROPN1L | 5 | 0.758 | 97 | 2.47 | 56.6 |
| ROPN1L | 6 | 0.144 | 84.7 | 0.4 | 85.2 |
| AGO3 | 1 | -0.126 | 79.4 | 0.143 | 85.4 |
| AGO3 | 2 | -2.03 | 41.5 | -1.2 | 63.7 |
| AGO3 | 3 | -0.993 | 62.1 | -0.544 | 80.1 |
| SMLR1 | 1 | -1.24 | 57.1 | -0.854 | 80 |
| SMLR1 | 2 | 0.616 | 94.1 | 1.2 | 76.6 |
| SMLR1 | 3 | 0.417 | 90.2 | 0.553 | 87.1 |
| PTPN5 | 1 | 0.41 | 90 | 0.595 | 86 |
| PTPN5 | 2 | -0.123 | 79.4 | 1.04 | 67.5 |
| PTPN5 | 3 | -0.598 | 70 | -0.449 | 88 |
| RTF2 | 1 | -0.28 | 76.3 | -0.428 | 95.4 |
| RTF2 | 2 | -0.119 | 79.5 | 0.383 | 80.3 |
| RTF2 | 3 | -0.293 | 76.1 | 1.01 | 65.1 |
| LUZP2 | 1 | -0.398 | 74 | 0.585 | 70.9 |
| LUZP2 | 2 | 1.53 | 112 | 2.63 | 62.8 |
| LUZP2 | 3 | 2.3 | 128 | 1.56 | 94.6 |
| MAGEB6B | 1 | 2.74 | 136 | 1.64 | 98.9 |
| MAGEB6B | 2 | -0.923 | 63.5 | -0.696 | 85.3 |
| MAGEB6B | 3 | -1.04 | 61.2 | -0.998 | 88.9 |
| GGT2P | 1 | 0.383 | 89.5 | 0.41 | 89.8 |
| GGT2P | 2 | -0.567 | 70.6 | -0.985 | 102 |
| GGT2P | 3 | 0.555 | 92.9 | 0.373 | 94.1 |
